Reference: article PMC12019163
No constants are given. Whether binding was seen depends on the method and setting. Binding seen in cells or lysates may run through a third protein. Some entries that bind do so weakly or less than the wild type. For some assays here: Tags and fused reporters may be left off the sequences shown.

Amino acid sequences for entries named in this document (tags omitted).
UniProt Q96B97: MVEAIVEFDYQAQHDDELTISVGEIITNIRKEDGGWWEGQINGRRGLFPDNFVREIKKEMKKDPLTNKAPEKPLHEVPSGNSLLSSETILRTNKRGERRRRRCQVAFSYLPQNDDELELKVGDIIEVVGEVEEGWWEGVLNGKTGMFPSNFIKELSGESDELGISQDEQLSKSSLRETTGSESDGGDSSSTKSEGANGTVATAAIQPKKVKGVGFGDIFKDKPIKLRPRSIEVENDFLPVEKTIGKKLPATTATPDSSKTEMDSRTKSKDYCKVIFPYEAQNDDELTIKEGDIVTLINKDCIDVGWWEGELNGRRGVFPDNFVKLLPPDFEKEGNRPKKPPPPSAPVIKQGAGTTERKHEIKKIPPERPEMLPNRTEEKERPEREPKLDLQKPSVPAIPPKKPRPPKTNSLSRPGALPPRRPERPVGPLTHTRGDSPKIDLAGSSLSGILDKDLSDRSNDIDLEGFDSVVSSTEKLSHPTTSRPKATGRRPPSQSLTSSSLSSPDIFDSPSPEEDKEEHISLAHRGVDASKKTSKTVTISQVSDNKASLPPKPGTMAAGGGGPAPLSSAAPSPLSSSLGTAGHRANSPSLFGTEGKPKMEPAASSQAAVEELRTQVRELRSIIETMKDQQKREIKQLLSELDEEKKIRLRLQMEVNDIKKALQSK

T1: Full-length GFP-tagged Dynamin-2 (UniProt P50570)
T1 sequence: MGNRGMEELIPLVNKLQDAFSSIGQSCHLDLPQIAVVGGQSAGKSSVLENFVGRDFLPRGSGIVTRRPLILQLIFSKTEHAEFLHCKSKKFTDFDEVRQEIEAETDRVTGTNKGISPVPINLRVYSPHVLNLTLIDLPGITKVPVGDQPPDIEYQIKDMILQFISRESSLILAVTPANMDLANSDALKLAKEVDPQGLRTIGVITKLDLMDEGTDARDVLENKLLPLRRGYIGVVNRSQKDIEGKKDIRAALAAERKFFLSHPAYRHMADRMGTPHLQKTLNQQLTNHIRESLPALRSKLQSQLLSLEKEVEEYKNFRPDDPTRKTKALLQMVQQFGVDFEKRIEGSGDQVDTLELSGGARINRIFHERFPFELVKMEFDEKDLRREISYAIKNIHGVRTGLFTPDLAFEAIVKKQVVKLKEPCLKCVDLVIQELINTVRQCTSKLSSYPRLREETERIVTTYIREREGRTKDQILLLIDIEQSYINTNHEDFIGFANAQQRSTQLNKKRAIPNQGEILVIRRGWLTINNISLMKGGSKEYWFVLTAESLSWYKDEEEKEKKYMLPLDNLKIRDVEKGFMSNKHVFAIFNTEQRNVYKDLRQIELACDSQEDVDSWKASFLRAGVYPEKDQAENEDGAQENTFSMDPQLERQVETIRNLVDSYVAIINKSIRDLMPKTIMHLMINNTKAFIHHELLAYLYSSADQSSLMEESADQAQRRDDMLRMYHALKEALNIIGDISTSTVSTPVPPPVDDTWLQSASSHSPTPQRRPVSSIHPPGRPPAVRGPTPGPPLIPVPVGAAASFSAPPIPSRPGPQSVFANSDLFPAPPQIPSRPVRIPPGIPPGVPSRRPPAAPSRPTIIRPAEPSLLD

B1: Calnexin (protein, UniProt P35564 21-591)
chain: HDGHDDDAIDIEDDLDDVIEEVEDSKSKSDASTPPSPKVTYKAPVPTGEVYFADSFDRGSLSGWILSKAKKDDTDDEIAKYDGKWEVDEMKETKLPGDKGLVLMSRAKHHAISAKLNKPFLFDTKPLIVQYEVNFQNGIECGGAYVKLLSKTAELSLDQFHDKTPYTIMFGPDKCGEDYKLHFIFRHKNPKTGVYEEKHAKRPDADLKTYFTDKKTHLYTLILNPDNSFEILVDQSVVNSGNLLNDMTPPVNPSREIEDPEDRKPEDWDERPKIADPDAVKPDDWDEDAPSKIPDEEATKPEGWLDDEPEYIPDPDAEKPEDWDEDMDGEWEAPQIANPKCESAPGCGVWQRPMIDNPNYKGKWKPPMIDNPNYQGIWKPRKIPNPDFFEDLEPFKMTPFSAIGLELWSMTSDIFFDNFIISGDRRVVDDWANDGWGLKKAADGAAEPGVVLQMLEAAEERPWLWVVYILTVALPVFLVILFCCSGKKQSNAMEYKKTDAPQPDVKDEEGKEEEKNKRDEEEEEEKLEEKQKSDAEEDGVTGSQDEEDSKPKAEEDEILNRSPRNRKPRRE

How the values were obtained:
[1] = biological target: T1, Full-length GFP-tagged Dynamin-2; test: co-IP; GFP-DNM2 co-expressed with Flag-SH3KBP1 constructs in C2C12 cells; GFP-DNM2 immunoprecipitated from cell extracts with GFP-Trap; blots with anti-GFP, anti-Flag and anti-SH3KBP1
[2] = biological target: GFP-tagged SH3KBP1 full length (human) (UniProt Q96B97); test: co-IP; GFP-tagged SH3KBP1 constructs expressed in C2C12 cells; GFP trap assay on cell extracts; blots with anti-ERP72, anti-Calnexin (endogenous proteins) and anti-GFP

binding [1] | binding [2] | Molecule
binds | – | FLAG-tagged SH3KBP1 full length (from UniProt Q96B97 1-665)
– | binds | B1
